# Primary screen of a compound library

Source: ChEMBL document CHEMBL3988442, “University of Dundee, Small-Polar-MMV Screening Library” (2021).

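Whole-cell assay for inhibitors of Mycobacterium tuberculosis growth, labelled Cornell in the record; the read-out is not stated. The concentration is filed as 10 mM, unlikely as a test dose, so the dose is not known. The record gives no direction; compounds strong in two other growth screens of this library score well above the rest, so higher reads as stronger inhibition. Of about 53,000 compounds tested this way, about 900 (1.7%) reached 50% or more in at least one test.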

Values are the deposited “Percent Effect”, in %.
The record does not define 0% and 100%; most values in the screen are far below 50% and negative numbers occur (in some assays of this library far below -100).
The compounds are a random part of those screened.

| Compound | effect |
|---|---|
| `COCC1CC2(CCN(c3ccc(C)nn3)CC2)CN1C(C)C.O=C(O)C(F)(F)F` (stereo not given) | 1.331% |
| `O=C(O)C(F)(F)F.[H][C@@]12C[C@H](C(=O)N3CCN(C)CC3)[C@@]([H])(CN(S(=O)(=O)CCC)C1)O2` | 11.62% |
| `O=C(NCc1cccc(N2CC=CC2)c1)NC1CC1` | 3.456% |
| `Cc1cc(N2CCCCC2)nc(N(CCO)CCO)c1C#N` | 11.11% |
| `Cn1ccnc1CN1CCC2(CC(=O)N(c3ccccn3)C2)C1.O=C(O)C(F)(F)F.O=C(O)C(F)(F)F` (stereo not given) | 2.144% |
| `CC(NCc1ccncc1)c1cc(F)ccc1N1CCN(C)CC1` (stereo not given) | -16.31% |
| `CC(=O)Nc1nc(CN2CCn3c(nnc3C3CC3)C2)cs1` | 4.366% |
| `CCC1CCCN(S(=O)(=O)c2cnc3onc(C)c3c2)C1` (stereo not given) | 54.72% |
| `Nc1nc(CCNc2ncnc3c2CCN(C(=O)C2CC2)C3)cs1` | 12.62% |
| `COc1ccccc1N1CCN(Cc2nc(C)c(C)o2)CC1` | 5.507% |
| `COCC[C@]1(O)CCN(C2CCN(C(=O)C3CCC3)CC2)C[C@H]1C` | -10.78% |
| `CC(=O)Nc1cccc(OCCNC(=O)N(C)Cc2ccccc2)c1` | -21.61% |
| `Cc1nc(CSCCC(=O)NCc2ccncc2)cs1` | 2.153% |
| `O=C(O)C(F)(F)F.[H][C@@]12CN(c3nnc(C)s3)C[C@@H](C(=O)NCC3CC3)[C@]1([H])CCO2` | 29.15% |
| `CN(CCN1CCCCC1=O)Cc1cc2cc3c(cc2[nH]c1=O)OCO3` | 2.769% |
| `COC(=O)C1CCN(C(=O)c2ccc(C)c(NS(C)(=O)=O)c2)CC1` | 16.48% |
| `CC(=O)N1CCC2(C1)C(=O)N(CC1CC1)c1ccccc12` (stereo not given) | -13.2% |
| `CCN1CCN(c2ccc(CNC(=O)Cc3c(C)noc3C)cn2)CC1` | -4.14% |
| `CC(C)C(C)N(C(=O)Cn1nc2n(c1=O)CCCCC2)C1CC1` (stereo not given) | 8.615% |
| `[H][C@]12CC[C@]([H])(CN(c3cc(OC)ncn3)C1)N(CC1CCC1)C2=O` | -9.183% |
| `COCC1CCCN(CCCc2cccc(OC)c2)C1` (stereo not given) | -12.23% |
| `Cc1ccc(C(=O)NCCCC2(C3OCCO3)CCOCC2)cc1C` | 17.15% |
| `c1ccc(-n2cncn2)c(CNCCn2cccn2)c1` | -0.8682% |
| `COc1cccc(CCC2CCCCN2)c1` (stereo not given) | -2.709% |
| `Cn1nccc1-c1ncc2c(c1C(=O)O)CCN(Cc1cccnc1)C2.O=C(O)C(F)(F)F.O=C(O)C(F)(F)F` | -25.97% |
| `Cc1cc2ccccc2n1CCC(=O)NCCN(C)S(C)(=O)=O` | 14.2% |
| `CCOC(=O)N1CCN(c2nc(NC3CC3)c3ccccc3n2)CC1.Cl` | 9.791% |
| `Cc1ccc(CN(CCCN2CCOCC2)Cc2cnc(C)n2C)o1.O=C(O)CC(O)(CC(=O)O)C(=O)O` | -11.8% |
| `Cc1cccc2c1nc(COCC(=O)O)n2-c1ccsc1` | -43.99% |
| `O=c1[nH]cnc2[nH]c(N3CCCCC3)nc12` | 23.11% |
| `[H][C@]12C[C@H](C(=O)NC)N(S(C)(=O)=O)[C@@]1([H])CN(C(=O)c1ccoc1)C2` | 22.45% |
| `Cl.Cn1cc([C@@H]2CN(S(C)(=O)=O)C[C@H]2N)c2ccncc21` | -32.25% |
| `CCCS(=O)(=O)NCCn1ccc(-c2cccs2)n1` | -17.91% |
| `CCOc1ccc(Cl)cc1C(C(=O)O)N1CCOCC1` (stereo not given) | -9.018% |
| `c1cnc2[nH]c(C3CCNCC3)c(CN3CCOCC3)c2c1` | 16.96% |
| `O=C1NCC2(CCCN(CCc3ccccc3)C2)Oc2ccccc21` (stereo not given) | 0.3843% |
| `CC(C)n1[nH]c(=O)c2c1NC(=O)CC2c1ccc2ncccc2c1` (stereo not given) | 5.452% |
| `Cc1cnn(CCNCc2ccc(F)cc2Cl)c1` | 25.21% |
| `O=C(O)C(F)(F)F.O=C(O)C(F)(F)F.[H][C@@]12CN(CCOC)CC[C@]1([H])CN(Cc1cccnc1OC)C2` | -28.54% |
| `O=C(CSc1nncs1)N1CCN(Cc2ccc(Cl)cc2)CC1` | -38.58% |
| `[H][C@@]12CCCN1CCCN(Cc1cc3cccc(C)c3[nH]c1=O)C2` | 10.19% |
| `Cn1cc(C2CCCN2C(=O)c2cn(-c3ccccc3)nn2)cn1` (stereo not given) | -26.03% |
| `O=C(NCC1CC1)C1CN(C(=O)c2ccco2)CC12CCOCC2` (stereo not given) | 20.5% |
| `CCOC1CC2(CCN(C(=O)COC)CC2)c2cc(C)ccc21` (stereo not given) | 29.9% |
| `CC(C)c1nnc(CN2CCCC3(CC2)CN(C)C(=O)O3)o1` (stereo not given) | -8.789% |
| `Cc1c(Cl)cc(C(=O)NCCc2ncnn2C)cc1Cl` | 31.45% |
| `COCCC1COC2(CCN(C(=O)C3CCCC3)CC2)C1` (stereo not given) | -26.79% |
| `CN(C)C(=O)c1ccc(-c2cccc3c2CCNC3)cc1` | 11.36% |
| `Cc1cc(C(=O)N2CCCS2(=O)=O)c(C)o1` | -43.11% |
| `Cc1cc(C(C)(O)CNC(=O)CCOCC(C)C)c(C)o1` (stereo not given) | 25.36% |
| `CN(C)c1cc(CNC(=O)Nc2ccc(F)cc2)ccn1` | 11.7% |
| `COc1cccc(N2CCC(N3CCOC(C(F)(F)F)C3)CC2)c1` (stereo not given) | 15.41% |
| `CN(Cc1ccsc1)C(=O)Nc1ccc(S(C)(=O)=O)nc1` | -5.136% |

Repeated from the top, 4 entries:

Compound,effect
COCC1CC2(CCN(c3ccc(C)nn3)CC2)CN1C(C)C.O=C(O)C(F)(F)F (stereo not given),1.331%
O=C(O)C(F)(F)F.[H][C@@]12C[C@H](C(=O)N3CCN(C)CC3)[C@@]([H])(CN(S(=O)(=O)CCC)C1)O2,11.62%
O=C(NCc1cccc(N2CC=CC2)c1)NC1CC1,3.456%
Cc1cc(N2CCCCC2)nc(N(CCO)CCO)c1C#N,11.11%